Results are given in words; binding and its absence hold for the method and conditions named. Binding seen in cells or lysates may run through a third protein. Some entries that bind do so weakly or less than the wild type.
Assays:
[1] = target: EZH1 (mouse (endogenous in MLE12)) (UniProt P70351); test: co-IP; extracts from control and lamin B1 KD cells; IP with control, EZH1 or EZH2 antibodies, blot with anti-lamin B1; coIP buffer 50 mM Tris pH 7.5, 100 mM NaCl, 15 mM EGTA, 0.1% Triton X-100; antibodies overnight at 4°C, Protein-A/G-Sepharose 3 h
[2] = target: EZH2 (mouse (endogenous in MLE12)) (UniProt Q61188); test: as above

By UniProt entry, the sequences of proteins in these tests, tags left out.
UniProt P70351: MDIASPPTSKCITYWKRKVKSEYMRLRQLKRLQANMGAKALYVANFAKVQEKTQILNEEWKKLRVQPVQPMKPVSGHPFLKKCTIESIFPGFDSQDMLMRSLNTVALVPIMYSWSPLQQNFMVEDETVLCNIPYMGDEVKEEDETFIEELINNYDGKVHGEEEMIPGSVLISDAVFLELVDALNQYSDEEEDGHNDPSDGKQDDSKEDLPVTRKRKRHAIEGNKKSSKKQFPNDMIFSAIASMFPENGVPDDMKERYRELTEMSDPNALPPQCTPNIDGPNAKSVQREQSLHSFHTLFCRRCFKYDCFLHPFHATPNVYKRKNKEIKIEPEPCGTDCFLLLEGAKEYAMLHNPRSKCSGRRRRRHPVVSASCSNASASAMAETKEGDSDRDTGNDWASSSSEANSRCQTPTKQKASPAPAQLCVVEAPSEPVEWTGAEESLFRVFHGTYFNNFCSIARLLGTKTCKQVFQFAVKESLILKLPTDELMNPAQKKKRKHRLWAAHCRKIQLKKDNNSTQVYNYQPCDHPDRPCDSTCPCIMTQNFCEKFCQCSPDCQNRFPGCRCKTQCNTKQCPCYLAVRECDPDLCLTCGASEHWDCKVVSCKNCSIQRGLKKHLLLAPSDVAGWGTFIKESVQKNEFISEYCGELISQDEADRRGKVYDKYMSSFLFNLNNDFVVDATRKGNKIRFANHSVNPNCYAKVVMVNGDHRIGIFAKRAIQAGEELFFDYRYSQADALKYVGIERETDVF
UniProt Q61188: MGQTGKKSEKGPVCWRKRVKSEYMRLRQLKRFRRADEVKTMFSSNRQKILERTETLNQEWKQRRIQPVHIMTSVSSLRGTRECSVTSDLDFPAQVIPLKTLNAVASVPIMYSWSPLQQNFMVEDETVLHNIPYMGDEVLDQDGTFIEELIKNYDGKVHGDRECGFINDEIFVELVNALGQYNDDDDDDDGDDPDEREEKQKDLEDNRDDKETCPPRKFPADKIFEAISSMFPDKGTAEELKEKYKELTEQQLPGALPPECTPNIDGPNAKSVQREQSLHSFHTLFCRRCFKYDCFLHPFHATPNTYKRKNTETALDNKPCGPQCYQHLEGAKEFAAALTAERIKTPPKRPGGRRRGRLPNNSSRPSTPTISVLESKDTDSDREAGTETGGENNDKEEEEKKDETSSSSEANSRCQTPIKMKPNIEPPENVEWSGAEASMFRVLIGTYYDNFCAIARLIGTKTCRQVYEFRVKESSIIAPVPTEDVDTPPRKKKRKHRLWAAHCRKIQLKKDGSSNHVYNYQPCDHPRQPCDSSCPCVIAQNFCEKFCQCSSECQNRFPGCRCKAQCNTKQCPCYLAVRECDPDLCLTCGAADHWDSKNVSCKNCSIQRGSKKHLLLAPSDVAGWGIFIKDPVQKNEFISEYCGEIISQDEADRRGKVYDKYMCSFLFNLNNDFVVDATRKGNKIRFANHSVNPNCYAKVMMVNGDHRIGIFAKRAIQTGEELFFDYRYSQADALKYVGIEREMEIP

- binding [1]: binds
- binding [2]: binds
B1: lamin B1 (protein, UniProt P14733 1-588)
chain: MATATPVQQQRAGSRASAPATPLSPTRLSRLQEKEELRELNDRLAVYIDKVRSLETENSALQLQVTEREEVRGRELTGLKALYETELADARRALDDTARERAKLQIELGKFKAEHDQLLLNYAKKESDLSGAQIKLREYEAALNSKDAALATALGDKKSLEGDLEDLKDQIAQLEASLSAAKKQLADETLLKVDLENRCQSLTEDLEFRKNMYEEEINETRRKHETRLVEVDSGRQIEYEYKLAQALHEMREQHDAQVRLYKEELEQTYHAKLENARLSSEMNTSTVNSAREELMESRMRIESLSSQLSNLQKESRACLERIQELEDMLAKERDNSRRMLSDREREMAEIRDQMQQQLSDYEQLLDVKLALDMEISAYRKLLEGEEERLKLSPSPSSRVTVSRASSSRSVRTTRGKRKRVDVEESEASSSVSISHSASATGNVCIEEIDVDGKFIRLKNTSEQDQPMGGWEMIRKIGDTSVSYKYTSRYVLKAGQTVTVWAANAGVTASPPTDLIWKNQNSWGTGEDVKVILKNSQGEEVAQRSTVFKTTIPEEEEEEEEEPIGVAVEEERFHQQGAPRASNKSCAIM

Reference: paper PMC6547854
